Reference: the supplement of paper PMC11542785
Where a name gives a salt, the structure may show the parent alone. The list shows a part of the results. Most values come without repeats; read them as rough.

Test system: Drosophila melanogaster DPAGT1 (Alg7) RNAi eye model
Assay: eye size Z-score vs DMSO-treated DPAGT1 model flies; higher = larger eye (suppression of DPAGT1 phenotype)
Details: 5 uM

| Compound | eye size Z-score | eye size Z-score (female) |
| --- | --- | --- |
| COc1cc(C(=O)N2CCOCC2)cc(OC)c1OC [Trimetozine] | 0.36 | – |
| CN(C)CCCOc1nn(Cc2ccccc2)c2ccccc12 [Benzydamine hydrochloride] | -0.13 | – |
| Cc1cc2nc3ccc(N(C)C)cc3[s+]c2cc1N [Tolonium chloride] | 0.07 | – |
| Nc1ccc(S(=O)(=O)Nc2ccc(Cl)nn2)cc1 [Sulfachloropyridazine] | 0.61 | – |
| COc1cc2nc(N3CCN(C(=O)C4CCCO4)CC3)nc(N)c2cc1OC (stereo not given) [Terazosin hydrochloride] | -0.04 | – |
| C[N+]1(C)CCC(=C(c2ccccc2)c2ccccc2)CC1 [Diphemanil methylsulfate] | 0.24 | – |
| NS(=O)(=O)c1cc2c(cc1Cl)NCNS2(=O)=O [Hydrochlorothiazide] | 1.38 | – |
| CN(C)CCc1c[nH]c2ccc(C[C@H]3COC(=O)N3)cc12 [Zolmitriptan] | -1.19 | – |
| COc1ccc(-c2noc(CC(=O)O)c2-c2ccc(OC)cc2)cc1 [Mofezolac] | -1.02 | – |
| CN(C)CCC=C1c2ccccc2C=Cc2ccccc21 [Cyclobenzaprine hydrochloride] | -0.64 | – |
| O=c1[nH]c(=O)n([C@H]2C[C@H](O)[C@@H](CO)O2)cc1F [Floxuridine] | 0.52 | – |
| COc1cc(C)c(/C=C/C(C)=C/C=C/C(C)=C/C(=O)O)c(C)c1C [Acitretin] | 1.05 | – |
| CC(C)OC(=O)CCC/C=C\C[C@@H]1[C@@H](CC[C@@H](O)CCc2ccccc2)[C@H](O)C[C@@H]1O [Latanoprost] | -0.25 | – |
| CC(=O)Oc1cc(C(C)C)c(OCCN(C)C)cc1C [Moxisylyte hydrochoride] | 1.21 | – |
| CC(c1cc2ccccc2s1)N(O)C(N)=O (stereo not given) [Zileuton] | 0.5 | – |
| CCn1cc(C(=O)O)c(=O)c2cc(F)c(N3CCN(C)CC3)cc21 [Pefloxacin] | -0.24 | – |
| Cc1ccc(S(=O)(=O)NCl)cc1 [Chloramine-T hydrate] | -0.48 | – |
| COc1cc(N)cn[n+]1-c1ccccc1 [Amezinium metilsulfate] | -0.33 | – |
| C[C@@H]1CN(c2c(F)c(N)c3c(=O)c(C(=O)O)cn(C4CC4)c3c2F)C[C@H](C)N1 [Sparfloxacin] | -0.04 | – |
| C[C@]12C=CC(=O)C=C1CC[C@@H]1[C@@H]2C(=O)C[C@@]2(C)[C@H]1CC[C@]2(O)C(=O)CO [Prednisone] | 0.76 | – |
| NC(=O)c1cc[n+](CC2=C(C(=O)O)N3C(=O)[C@@H](NC(=O)C(c4ccccc4)S(=O)(=O)[O-])[C@H]3SC2)cc1 (stereo not given in full) [Cefsulodin Sodium Salt Hydrate] | -0.78 | – |
| CCn1cc(C(=O)O)c(=O)c2cc(F)c(N3CCNC(C)C3)c(F)c21 (stereo not given) [Lomefloxacin hydrochloride] | -0.22 | – |
| COc1cc(C)nc(-n2nc(C)cc2OC)n1 [Epirizole] | 0.32 | – |
| CS(=O)(=O)Nc1ccc([N+](=O)[O-])cc1Oc1ccccc1 [Nimesulide] | 0.64 | – |
| CNC(=C[N+](=O)[O-])NCCSCc1csc(CN(C)C)n1 [Nizatidine] | 0.11 | – |

| Compound | eye size Z-score | eye size Z-score (female) |
| --- | --- | --- |
| CC(C)CN(C[C@@H](O)[C@H](Cc1ccccc1)NC(=O)O[C@H]1CCOC1)S(=O)(=O)c1ccc(N)cc1 [Amprenavir] | 0.43 | – |
| CNCCC=C1c2ccccc2CCc2ccccc21 [Nortriptyline hydrochloride] | 1.55 | – |
| C[C@H]1[C@H](NC(=O)/C(=N\OC(C)(C)C(=O)O)c2csc(N)n2)C(=O)N1S(=O)(=O)O [Aztreonam] | -0.23 | – |
| CCc1c2c(nc3ccc(OC(=O)N4CCC(N5CCCCC5)CC4)cc13)-c1cc3c(c(=O)n1C2)COC(=O)[C@]3(O)CC [Irinotecan hydrochloride trihydrate] | -0.07 | – |
| Cc1ccc(/C(=C\CN2CCCC2)c2ccccn2)cc1 [Triprolidine hydrochloride] | 0.48 | – |
| CC(C)(O/N=C(\C(=O)N[C@@H]1C(=O)N2C(C(=O)[O-])=C(C[n+]3ccccc3)CS[C@H]12)c1csc(N)n1)C(=O)O [Ceftazidime pentahydrate] | 0.66 | – |
| Cc1c(Cl)cccc1Nc1ncccc1C(=O)O [Clonixin lysinate] | 0.28 | – |
| CN1CCN(C(c2ccccc2)c2ccc(Cl)cc2)CC1 (stereo not given) [Chlorcyclizine hydrochloride] | -0.48 | – |
| CCc1oc2ccccc2c1C(=O)c1cc(I)c(O)c(I)c1 [Benziodarone] | -0.09 | – |
| O=C(N/N=C/c1ccc([N+](=O)[O-])o1)c1ccc(O)cc1 [Nifuroxazide] | 0.73 | – |
| CC(C)(C)NCC(O)CSc1nc(-c2ccc(C(N)=O)s2)cs1 (stereo not given) [Arotinolol hydrochloride] | -0.16 | – |
| NC(=O)c1ncn([C@@H]2O[C@H](CO)[C@@H](O)[C@H]2O)c1O [Mizoribine] | 0.2 | – |
| CC(=O)Nc1c(I)c(NC(C)=O)c(I)c(C(=O)O)c1I [Diatrizoic acid dihydrate] | -0.15 | – |
| CCc1cc(C(N)=S)ccn1 [Ethionamide] | -0.28 | – |
| CN(N=O)C(=O)N[C@@H](C=O)[C@@H](O)[C@H](O)[C@H](O)CO [Streptozotocin] | -0.23 | – |
| CN1C2CCCC1CC(NC(=O)c1nn(C)c3ccccc13)C2 (stereo not given) [Granisetron] | 0.8 | – |
| CC(C)N1CCN(c2ccc(OCC3COC(Cn4cncn4)(c4ccc(Cl)cc4Cl)O3)cc2)CC1 (stereo not given) [Terconazole] | -0.09 | – |
| O=C(NCCNCC(O)COc1ccc(O)cc1)N1CCOCC1 (stereo not given) [Xamoterol hemifumarate] | – | 0.29 |
| CCN(Cc1ccncc1)C(=O)C(CO)c1ccccc1 (stereo not given) [Tropicamide] | -0.03 | – |
| CN(C)CCOC1=Cc2ccccc2Sc2ccc(Cl)cc21 [Zotepine] | 0.43 | – |
| Cc1ncc([N+](=O)[O-])n1CCO [Metronidazole] | 0.01 | – |
| CCN(CC)CC#CCOC(=O)C(O)(c1ccccc1)C1CCCCC1 (stereo not given) [Oxybutynin chloride] | 0.04 | – |
| OC(CCN1CCCCC1)(c1ccccc1)C1CC2C=CC1C2 (stereo not given) [Biperiden hydrochloride] | -0.18 | – |
| COc1ccc(C(=O)NCc2cccnc2)cc1C(=O)NCc1cccnc1 [Picotamide monohydrate] | -0.21 | – |
| C=CC[C@@H]1/C=C(\C)C[C@H](C)C[C@H](OC)[C@H]2O[C@@](O)(C(=O)C(=O)N3CCCC[C@H]3C(=O)O[C@H](/C(C)=C/[C@@H]3CC[C@@H](O)[C@H](OC)C3)[C@H](C)[C@@H](O)CC1=O)[C@H](C)C[C@@H]2OC [Tacrolimus Monohydrate] | 0.43 | – |

In the list so far, two have a thiophene ring, fused or not.

| Compound | eye size Z-score | eye size Z-score (female) |
| --- | --- | --- |
| CC(c1cc2ccccc2s1)N(O)C(N)=O (stereo not given) [Zileuton] | 0.5 | – |
| CC(C)(C)NCC(O)CSc1nc(-c2ccc(C(N)=O)s2)cs1 (stereo not given) [Arotinolol hydrochloride] | -0.16 | – |
